Reference: article PMC8384837
Where a chain is given by its changes, count along the chain named. The list shows a part of the results. For some assays here: At the low end of the ranking the order means little. For some assays here: The source does not settle which construct or isoform was used.

These sequences were tested against T1, PUM1 PUF domain R2-VFQ R3-THE R4-TFR N899V + Y900F + C935T + R936H + Q939E + N971T + H972F + Q975R (UniProt Q14671). Details: yeast three-hybrid, YBZ-1, SC-Leu-His + 0.5 mM 3-AT, 4 days.
T1 sequence: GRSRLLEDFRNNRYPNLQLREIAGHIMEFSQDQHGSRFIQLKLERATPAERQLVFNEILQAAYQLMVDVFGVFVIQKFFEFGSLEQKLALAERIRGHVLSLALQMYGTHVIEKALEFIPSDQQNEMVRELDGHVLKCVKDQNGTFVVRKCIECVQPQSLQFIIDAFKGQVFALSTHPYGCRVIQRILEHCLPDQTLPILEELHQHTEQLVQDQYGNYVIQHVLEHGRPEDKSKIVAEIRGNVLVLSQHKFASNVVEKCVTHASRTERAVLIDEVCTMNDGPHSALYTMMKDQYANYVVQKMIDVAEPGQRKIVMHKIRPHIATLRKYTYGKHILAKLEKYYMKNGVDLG
With “GGCUAGAACUAGUGGAUCCCCCGGCGCCCGGCGGCUCGAGCCCGGGUAAGGGUAAGGCGUCUGCAUGCCGCCGGGCGCCAUGCCUGCAGGUCGACUCUAGAAAACAUG” the binding signal (log2 enrichment (interaction score)) was -5.69.
“GGCUAGAACUAGUGGAUCCCCCGGCGCCCGGCGGCUCGAGCCCGGGUAAGAUGUCGAGGUCUGCAUGCCGCCGGGCGCCAUGCCUGCAGGUCGACUCUAGAAAACAUG” was tested, and the binding signal (log2 enrichment (interaction score)) was -4.39.
In the case of “GGCUAGAACUAGUGGAUCCCCCGGCGCCCGGCGGCUCGAGCCCGGGUAAGUUCGGGAGGUCUGCAUGCCGCCGGGCGCCAUGCCUGCAGGUCGACUCUAGAAAACAUG”, the binding signal (log2 enrichment (interaction score)) is reported as -5.45.
“GGCUAGAACUAGUGGAUCCCCCGGCGCCCGGCGGCUCGAGCCCGGGUAAGUUGGCGAUGUCUGCAUGCCGCCGGGCGCCAUGCCUGCAGGUCGACUCUAGAAAACAUG” showed a binding signal (log2 enrichment (interaction score)) of less than -6.21.
With “GGCUAGAACUAGUGGAUCCCCCGGCGCCCGGCGGCUCGAGCCCGGGUAAGUCGAAGACGUCUGCAUGCCGCCGGGCGCCAUGCCUGCAGGUCGACUCUAGAAAACAUG” the binding signal (log2 enrichment (interaction score)) was -4.88.
Sequence “GGCUAGAACUAGUGGAUCCCCCGGCGCCCGGCGGCUCGAGCCCGGGUAAGUGAUAAUCGUCUGCAUGCCGCCGGGCGCCAUGCCUGCAGGUCGACUCUAGAAAACAUG” has a binding signal (log2 enrichment (interaction score)) of -5.76.
“GGCUAGAACUAGUGGAUCCCCCGGCGCCCGGCGGCUCGAGCCCGGGUAAGUUGCCUUCGUCUGCAUGCCGCCGGGCGCCAUGCCUGCAGGUCGACUCUAGAAAACAUG” gave a binding signal (log2 enrichment (interaction score)) of -5.02.
In the case of “GGCUAGAACUAGUGGAUCCCCCGGCGCCCGGCGGCUCGAGCCCGGGUAAGUUGGCAAAGUCUGCAUGCCGCCGGGCGCCAUGCCUGCAGGUCGACUCUAGAAAACAUG”, the binding signal (log2 enrichment (interaction score)) is reported as -5.77.
In the case of “GGCUAGAACUAGUGGAUCCCCCGGCGCCCGGCGGCUCGAGCCCGGGUAAGUAAGUGUAGUCUGCAUGCCGCCGGGCGCCAUGCCUGCAGGUCGACUCUAGAAAACAUG”, the binding signal (log2 enrichment (interaction score)) is reported as -5.12.
Work on “GGCUAGAACUAGUGGAUCCCCCGGCGCCCGGCGGCUCGAGCCCGGGUAAGUUUAUAGUGUCUGCAUGCCGCCGGGCGCCAUGCCUGCAGGUCGACUCUAGAAAACAUG” yielded a binding signal (log2 enrichment (interaction score)) of -5.21.
With “GGCUAGAACUAGUGGAUCCCCCGGCGCCCGGCGGCUCGAGCCCGGGUAAGCUUUUGUGGUCUGCAUGCCGCCGGGCGCCAUGCCUGCAGGUCGACUCUAGAAAACAUG” the binding signal (log2 enrichment (interaction score)) was -5.52.
“GGCUAGAACUAGUGGAUCCCCCGGCGCCCGGCGGCUCGAGCCCGGGUAAGCUGGAUAAGUCUGCAUGCCGCCGGGCGCCAUGCCUGCAGGUCGACUCUAGAAAACAUG” was tested, and the binding signal (log2 enrichment (interaction score)) was -5.42.
“GGCUAGAACUAGUGGAUCCCCCGGCGCCCGGCGGCUCGAGCCCGGGUAAGUGGUCUACGUCUGCAUGCCGCCGGGCGCCAUGCCUGCAGGUCGACUCUAGAAAACAUG” gave a binding signal (log2 enrichment (interaction score)) of less than -5.84.
“GGCUAGAACUAGUGGAUCCCCCGGCGCCCGGCGGCUCGAGCCCGGGUAAGGCAGUGAAGUCUGCAUGCCGCCGGGCGCCAUGCCUGCAGGUCGACUCUAGAAAACAUG” showed a binding signal (log2 enrichment (interaction score)) of -4.99.
“GGCUAGAACUAGUGGAUCCCCCGGCGCCCGGCGGCUCGAGCCCGGGUAAGUUAACUGAGUCUGCAUGCCGCCGGGCGCCAUGCCUGCAGGUCGACUCUAGAAAACAUG” showed a binding signal (log2 enrichment (interaction score)) of -5.07.
“GGCUAGAACUAGUGGAUCCCCCGGCGCCCGGCGGCUCGAGCCCGGGUAAGUUCGAAACGUCUGCAUGCCGCCGGGCGCCAUGCCUGCAGGUCGACUCUAGAAAACAUG” showed a binding signal (log2 enrichment (interaction score)) of -5.36.
Sequence “GGCUAGAACUAGUGGAUCCCCCGGCGCCCGGCGGCUCGAGCCCGGGUAAGGUUAAGUGGUCUGCAUGCCGCCGGGCGCCAUGCCUGCAGGUCGACUCUAGAAAACAUG” has a binding signal (log2 enrichment (interaction score)) of -5.48.

What follows are sequences tested against T2, PUM1 PUF domain R5-PHQ R6-SWD C1007P + R1008H + N1043S + Y1044W + Q1047D (UniProt Q14671). Details: yeast three-hybrid, YBZ-1, SC-Leu-His + 0.5 mM 3-AT, 4 days.
T2 sequence: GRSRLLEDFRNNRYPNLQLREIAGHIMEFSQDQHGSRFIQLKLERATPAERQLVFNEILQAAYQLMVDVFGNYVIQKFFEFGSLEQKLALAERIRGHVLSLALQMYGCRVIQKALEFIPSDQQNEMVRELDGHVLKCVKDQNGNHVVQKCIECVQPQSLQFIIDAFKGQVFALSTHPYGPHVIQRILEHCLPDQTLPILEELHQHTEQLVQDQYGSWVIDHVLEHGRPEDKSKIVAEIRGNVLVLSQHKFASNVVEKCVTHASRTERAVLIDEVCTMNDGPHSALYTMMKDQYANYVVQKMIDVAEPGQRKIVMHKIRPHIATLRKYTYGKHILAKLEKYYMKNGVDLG
In the case of “GGCUAGAACUAGUGGAUCCCCCGGCGCCCGGCGGCUCGAGCCCGGGUAAGUUGAAAUCGUCUGCAUGCCGCCGGGCGCCAUGCCUGCAGGUCGACUCUAGAAAACAUG”, the binding signal (log2 enrichment (interaction score)) is reported as -8.59.
With “GGCUAGAACUAGUGGAUCCCCCGGCGCCCGGCGGCUCGAGCCCGGGUAAGUGUACGUCGUCUGCAUGCCGCCGGGCGCCAUGCCUGCAGGUCGACUCUAGAAAACAUG” the binding signal (log2 enrichment (interaction score)) was -8.27.
“GGCUAGAACUAGUGGAUCCCCCGGCGCCCGGCGGCUCGAGCCCGGGUAAGUGUAAAAAGUCUGCAUGCCGCCGGGCGCCAUGCCUGCAGGUCGACUCUAGAAAACAUG” was tested, and the binding signal (log2 enrichment (interaction score)) was less than -8.21.

The sequences below were run against T3, PUM1 PUF domain R6-SWD R7-NPG N1043S + Y1044W + Q1047D + S1079N + N1080P + E1083G (Homo sapiens) (UniProt Q14671). Details: yeast three-hybrid, YBZ-1, SC-Leu-His + 0.5 mM 3-AT, 4 days.
T3 sequence: T2 sequence with P180C, H181R, S252N, N253P, E256G
“GGCUAGAACUAGUGGAUCCCCCGGCGCCCGGCGGCUCGAGCCCGGGUAAGUUGAAAUCGUCUGCAUGCCGCCGGGCGCCAUGCCUGCAGGUCGACUCUAGAAAACAUG” gave a binding signal (log2 enrichment (interaction score)) of -0.89.
“GGCUAGAACUAGUGGAUCCCCCGGCGCCCGGCGGCUCGAGCCCGGGUAAGUGUACGUCGUCUGCAUGCCGCCGGGCGCCAUGCCUGCAGGUCGACUCUAGAAAACAUG” showed a binding signal (log2 enrichment (interaction score)) of -1.02.
“GGCUAGAACUAGUGGAUCCCCCGGCGCCCGGCGGCUCGAGCCCGGGUAAGUGUAAAAAGUCUGCAUGCCGCCGGGCGCCAUGCCUGCAGGUCGACUCUAGAAAACAUG” gave a binding signal (log2 enrichment (interaction score)) of -1.09.
